{
  "source": "paper PMC9558053",
  "about": "“Development of a novel high-throughput screen for the identification of new inhibitors of protein S-acylation” (The Journal of Biological Chemistry, 2022)",
  "test_system": "HA-tagged human zDHHC2 expression",
  "experiment": "Expression level of HA-zDHHC2 in treated HEK293T cells (HA signal/Total Protein Stain)",
  "type": "cell-based",
  "details": "25 μM",
  "data": [
    {"molecule": "CCCCCCCOc1ccc(C(=O)Nc2cccc3c2OC(c2nnn[nH]2)CN3)cc1", "note": "(centres unmarked) [TTZ-1, N-(2-(1H-Tetrazol-5-yl)-3,4-dihydro-2H-benzo[b][1,4]oxazin-8-yl)-4-(heptyloxy)benzamide]", "values": [
      {"measurement": "level of zDHHC2 enzyme expression", "value": "unaffected"}
    ]},
    {"molecule": "O=C(Nc1cccc2c1OC(c1nnn[nH]1)CN2)c1ccc(OCCCCc2ccccc2)cc1", "note": "(centres unmarked) [TTZ-2, N-(2-(1H-Tetrazol-5-yl)-3,4-dihydro-2H-benzo[b][1,4]oxazin-8-yl)-4-(4-phenylbutoxy)benzamide]", "values": [
      {"measurement": "level of zDHHC2 enzyme expression", "value": "unaffected"}
    ]}
  ]
}
